# This is one part of the list. Repeats are few or missing, and single values can be far off.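 Imaging used 1,536-well plates; nuclei positive for cleaved PARP by antibody were divided by total DNA-stained nuclei to yield the apoptosis fraction. Doses for screening kept most cells viable, and cell lines differ markedly in resting and induced cleaved-PARP levels.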
# Tests used:
# Assay in all cases: cleaved PARP positive nuclei fraction relative to DMSO control; melanoma cells; higher = more apoptosis
# Conditions in all cases: library dose: low library concentration; 72 h
# 501Mel = system: 501Mel
# A101D = system: A101D
# A2058 = system: A2058
# A375 = system: A375
# C32 = system: C32
# CBRC008 = system: CBRC008 (line from a melanoma biopsy)
# CBRC013 = system: CBRC013 (line from a melanoma biopsy)
# CBRC014 = system: CBRC014 (line from a melanoma biopsy)
# CBRC016 = system: CBRC016 (line from a melanoma biopsy)
# CBRC017 = system: CBRC017 (line from a melanoma biopsy)
SMILES,cleaved PARP positive nuclei fraction (501Mel),cleaved PARP positive nuclei fraction (A101D),cleaved PARP positive nuclei fraction (A2058),cleaved PARP positive nuclei fraction (A375),cleaved PARP positive nuclei fraction (C32),cleaved PARP positive nuclei fraction (CBRC008),cleaved PARP positive nuclei fraction (CBRC013),cleaved PARP positive nuclei fraction (CBRC014),cleaved PARP positive nuclei fraction (CBRC016),cleaved PARP positive nuclei fraction (CBRC017)
"C[As](C)SC[C@H](NC(=O)CC[C@H](N)C(=O)O)C(=O)NCC(=O)O [Darinaparsin] + CN(NC(=O)CC(=O)NN(C)C(=S)c1ccccc1)C(=S)c1ccccc1 [STA4783] (first compound 0.4 µM, partner dose 0.006 µM)",489%,58.5%,70.6%,6020%,221%,2840%,161%,474%,260%,247%
"C[C@]12O[C@H](C[C@]1(O)CO)n1c3ccccc3c3c4c(c5c6ccccc6n2c5c31)CNC4=O [Lestaurtinib] + O=C(O)c1ccc(-c2c[nH]c3ncc(-c4ccccc4)cc23)cc1C1CCCC1 [GSK650394] (first compound 0.004 µM, partner dose 0.16 µM)",86.9%,360%,167%,89.3%,53.9%,198%,111%,98.8%,177%,112%
"Cn1cnc2c(F)c(Nc3ccc(Br)cc3Cl)c(C(=O)NOCCO)cc21 [selumetinib] + C[As](C)SC[C@H](NC(=O)CC[C@H](N)C(=O)O)C(=O)NCC(=O)O [Darinaparsin] (first compound 0.015 µM, partner dose 0.4 µM)",6320%,150%,115%,52.6%,26%,263%,,185%,235%,178%
"C[C@]12O[C@H](C[C@]1(O)CO)n1c3ccccc3c3c4c(c5c6ccccc6n2c5c31)CNC4=O [Lestaurtinib] + Cn1cncc1[C@@](N)(c1ccc(Cl)cc1)c1ccc2c(c1)c(-c1cccc(Cl)c1)cc(=O)n2C [tipifarnib] (first compound 0.004 µM, partner dose 0.01 µM)",89.4%,200%,138%,37.5%,44.5%,312%,120%,88.2%,127%,95.1%
"C[As](C)SC[C@H](NC(=O)CC[C@H](N)C(=O)O)C(=O)NCC(=O)O [Darinaparsin] + NC(=O)Nc1cc(-c2cccc(F)c2)sc1C(=O)N[C@H]1CCCNC1 [AZD7762] (first compound 0.4 µM, partner dose 0.02 µM)",85.1%,219%,72.2%,275%,81.8%,384%,89.3%,80.9%,57.7%,88.2%
"Cn1cc(C2=C(c3cn(C4CCN(Cc5ccccn5)CC4)c4ccccc34)C(=O)NC2=O)c2ccccc21 [Enzastaurin] + CO[C@@H]1[C@H](N(C)C(=O)c2ccccc2)C[C@H]2O[C@]1(C)n1c3ccccc3c3c4c(c5c6ccccc6n2c5c31)C(=O)NC4 [Midostaurin] (first compound 0.8 µM, partner dose 0.08 µM)",63.6%,226%,116%,342%,363%,140%,153%,100%,172%,89.5%
"C[As](C)SC[C@H](NC(=O)CC[C@H](N)C(=O)O)C(=O)NCC(=O)O [Darinaparsin] + COc1cc(Nc2ncc(F)c(Nc3ccc4c(n3)NC(=O)C(C)(C)O4)n2)cc(OC)c1OC [Tamatinib] (first compound 0.4 µM, partner dose 0.4 µM)",308%,116%,114%,98%,138%,117%,117%,90.1%,77.1%,130%
"N.N.[Cl][Pt][Cl] [cisplatin] + CN1CCN(c2ccc3nc(-c4c(N)c5c(F)cccc5[nH]c4=O)[nH]c3c2)CC1 [Dovitinib] (first compound 1.6 µM, partner dose 0.1 µM)",78.1%,92.3%,61.9%,181%,79.9%,77.9%,,98.3%,92.7%,129%
"C[C@]12O[C@H](C[C@]1(O)CO)n1c3ccccc3c3c4c(c5c6ccccc6n2c5c31)CNC4=O [Lestaurtinib] + C[C@@H]1CCN(C(=O)CC#N)C[C@@H]1N(C)c1ncnc2[nH]ccc12 [CP690550] (first compound 0.004 µM, partner dose 1 µM)",79.1%,71.9%,178%,246%,31.4%,46.4%,105%,78.4%,31.3%,103%
"CC1(C)CCC(c2ccc(Cl)cc2)=C(CN2CCN(c3ccc(C(=O)NS(=O)(=O)c4ccc(N[C@H](CCN5CCOCC5)CSc5ccccc5)c(S(=O)(=O)C(F)(F)F)c4)cc3)CC2)C1 + N.N.[Cl][Pt][Cl] [cisplatin] (first compound 0.4 µM, partner dose 1.6 µM)",73.5%,317%,366%,413%,118%,1310%,,559%,796%,243%
"N.N.[Cl][Pt][Cl] [cisplatin] + O=C(CCCCCCC(=O)Nc1ccccc1)NO [vorinostat] (first compound 1.6 µM, partner dose 0.08 µM)",173%,55%,98.4%,89.1%,118%,86.6%,80.9%,91.1%,218%,91.9%
"CCCCCCCCCCCCCCCCCCOP(=O)([O-])OC1CC[N+](C)(C)CC1 [Perifosine] + C[As](C)SC[C@H](NC(=O)CC[C@H](N)C(=O)O)C(=O)NCC(=O)O [Darinaparsin] (first compound 0.4 µM, partner dose 0.4 µM)",88.3%,90.5%,75%,377%,85%,50.2%,,109%,152%,130%
"N.N.[Cl][Pt][Cl] [cisplatin] + CCCS(=O)(=O)Nc1ccc(F)c(C(=O)c2c[nH]c3ncc(Cl)cc23)c1F [PLX4720] (first compound 1.6 µM, partner dose 0.08 µM)",65.6%,130%,176%,78.3%,273%,200%,,122%,168%,88.9%
"C[C@]12O[C@H](C[C@]1(O)CO)n1c3ccccc3c3c4c(c5c6ccccc6n2c5c31)CNC4=O [Lestaurtinib] + CC(=O)O[C@@]12CO[C@@H]1C[C@H](O)[C@@]1(C)C(=O)[C@H](O)C3=C(C)[C@@H](OC(=O)[C@H](O)[C@@H](NC(=O)OC(C)(C)C)c4ccccc4)C[C@@](O)([C@@H](OC(=O)c4ccccc4)[C@H]21)C3(C)C [Docetaxel] (first compound 0.004 µM, partner dose 0.0001 µM)",262%,54.8%,1200%,619%,71.2%,451%,,112%,267%,182%
"C[C@]12O[C@H](C[C@]1(O)CO)n1c3ccccc3c3c4c(c5c6ccccc6n2c5c31)CNC4=O [Lestaurtinib] + CCCS(=O)(=O)Nc1ccc(F)c(C(=O)c2c[nH]c3ncc(Cl)cc23)c1F [PLX4720] (first compound 0.004 µM, partner dose 0.08 µM)",66.4%,123%,126%,199%,79.1%,45.9%,,87.1%,147%,84.8%
"Cn1cc(C2=C(c3cn(C4CCN(Cc5ccccn5)CC4)c4ccccc34)C(=O)NC2=O)c2ccccc21 [Enzastaurin] + COc1ccc(Cl)c(Nc2nc3ccccc3nc2NS(=O)(=O)c2cccc(NC(=O)C(C)(C)N)c2)c1 [XL147] (first compound 0.8 µM, partner dose 0.8 µM)",86.5%,45.6%,37.1%,58.3%,38.1%,80.2%,,129%,151%,102%
"CS(=O)(=O)c1ccc(C(=O)Nc2ccc(Cl)c(-c3ccccn3)c2)c(Cl)c1 [vismodegib] + C[As](C)SC[C@H](NC(=O)CC[C@H](N)C(=O)O)C(=O)NCC(=O)O [Darinaparsin] (first compound 1 µM, partner dose 0.4 µM)",154%,74%,88.8%,149%,226%,180%,,83.8%,29.4%,81.9%
"O=C(O)[C@@H]1[O][Sb](=[O])([O][Sb]2(=[O])[O][C@H]([C@H](O)CO)[C@H](O)[C@H](C(=O)O)[O]2)[O][C@H]([C@H](O)CO)[C@@H]1O (stereo partly specified) [stibogluconate] + C[As](C)SC[C@H](NC(=O)CC[C@H](N)C(=O)O)C(=O)NCC(=O)O [Darinaparsin] (first compound 2 µM, partner dose 0.4 µM)",101%,169%,107%,52.2%,71%,52.9%,,96.1%,150%,100%
"CN(c1ncccc1CNc1nc(Nc2ccc3c(c2)CC(=O)N3)ncc1C(F)(F)F)S(C)(=O)=O + C[As](C)SC[C@H](NC(=O)CC[C@H](N)C(=O)O)C(=O)NCC(=O)O [Darinaparsin] (first compound 0.08 µM, partner dose 0.4 µM)",469%,41.6%,97%,68.8%,187%,113%,,101%,72.7%,96.3%
"N.N.[Cl][Pt][Cl] [cisplatin] + Nc1ncn([C@H]2C[C@H](O)[C@@H](CO)O2)c(=O)n1 [decitabine] (first compound 1.6 µM, partner dose 0.1 µM)",135%,52.4%,93.8%,109%,85.8%,565%,,156%,151%,194%
"N.N.[Cl][Pt][Cl] [cisplatin] + Cn1c(Nc2ccc(C(F)(F)F)cc2)nc2cc(Oc3ccnc(-c4ncc(C(F)(F)F)[nH]4)c3)ccc21 [CHIR265] (first compound 1.6 µM, partner dose 0.08 µM)",49.4%,62.1%,168%,34.9%,73.8%,95%,,120%,119%,113%
"Clc1ccc(Nc2nnc(Cc3ccncc3)c3ccccc23)cc1 [vatalanib] + C[As](C)SC[C@H](NC(=O)CC[C@H](N)C(=O)O)C(=O)NCC(=O)O [Darinaparsin] (first compound 2 µM, partner dose 0.4 µM)",53%,54.7%,120%,141%,147%,105%,,134%,62%,107%

# Not a retest: entries from further up.
SMILES,cleaved PARP positive nuclei fraction (501Mel),cleaved PARP positive nuclei fraction (A101D),cleaved PARP positive nuclei fraction (A2058),cleaved PARP positive nuclei fraction (A375),cleaved PARP positive nuclei fraction (C32),cleaved PARP positive nuclei fraction (CBRC008),cleaved PARP positive nuclei fraction (CBRC013),cleaved PARP positive nuclei fraction (CBRC014),cleaved PARP positive nuclei fraction (CBRC016),cleaved PARP positive nuclei fraction (CBRC017)
"C[As](C)SC[C@H](NC(=O)CC[C@H](N)C(=O)O)C(=O)NCC(=O)O [Darinaparsin] + NC(=O)Nc1cc(-c2cccc(F)c2)sc1C(=O)N[C@H]1CCCNC1 [AZD7762] (first compound 0.4 µM, partner dose 0.02 µM)",85.1%,219%,72.2%,275%,81.8%,384%,89.3%,80.9%,57.7%,88.2%
"Cn1cc(C2=C(c3cn(C4CCN(Cc5ccccn5)CC4)c4ccccc34)C(=O)NC2=O)c2ccccc21 [Enzastaurin] + CO[C@@H]1[C@H](N(C)C(=O)c2ccccc2)C[C@H]2O[C@]1(C)n1c3ccccc3c3c4c(c5c6ccccc6n2c5c31)C(=O)NC4 [Midostaurin] (first compound 0.8 µM, partner dose 0.08 µM)",63.6%,226%,116%,342%,363%,140%,153%,100%,172%,89.5%
